{"source": "PubChem BioAssay AID652243 (Drosophila RNAi Screening Center, 2013)", "assay": "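Fly genes required for human androgen receptor driven transcription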 (primary screen)", "system": "Drosophila S2R+ cells", "knock-down reagent": "long dsRNA against Drosophila genes", "duration": "72 h (48 h, then 24 h hormone)", "conditions": "synthetic androgen R1881 at 10 nM for 24 h", "read-out": "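Firefly light from an androgen-responsive reporter and Renilla control light per well, raw and unnormalised, for each of two replicates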", "direction": "firefly reporter light: higher = more light from androgen-responsive reporter; Renilla control light: higher = more constitutive control signal (cell number, transfection)", "call rule": "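Hit when the log firefly-to-Renilla ratio dropped or increased by a fixed fold versus the mean of GFP or LacZ controls across duplicate plates; lowering cut given as 1.5 and as 3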", "meaning of the calls": "active = hit: reporter lowered or raised; inactive = no hit", "note": "The screen tested about 24,000 reagents; this is an unselected part of those with a known target gene and a result. In the full data, 246 (1%) are marked active. 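Plates not normalised; calls are printed but the firefly/Renilla ratio behind them is not deposited; fold cut for lowering reported inconsistently.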 The raw values are shown without normalisation. A plus sign joins genes that one reagent is predicted to hit. Not stated in the record: the amount of reagent."}
The opening 2 entries, to show the layout:
{"target": "CG30010", "amplicon": "DRSC05193", "firefly reporter light, replicate 1": 1.80e5, "firefly reporter light, replicate 2": 1.18e5, "Renilla control light, replicate 1": 2.44e5, "Renilla control light, replicate 2": 2.61e5, "Call": "inactive"}
{"target": "Rbp4", "amplicon": "DRSC16818", "firefly reporter light, replicate 1": 2.14e5, "firefly reporter light, replicate 2": 1.19e5, "Renilla control light, replicate 1": 2.51e6, "Renilla control light, replicate 2": 1.62e6, "Call": "inactive"}

The list itself, from the first entry:
{"target": "CG30010", "amplicon": "DRSC05193", "firefly reporter light, replicate 1": 1.80e5, "firefly reporter light, replicate 2": 1.18e5, "Renilla control light, replicate 1": 2.44e5, "Renilla control light, replicate 2": 2.61e5, "Call": "inactive"}
{"target": "Rbp4", "amplicon": "DRSC16818", "firefly reporter light, replicate 1": 2.14e5, "firefly reporter light, replicate 2": 1.19e5, "Renilla control light, replicate 1": 2.51e6, "Renilla control light, replicate 2": 1.62e6, "Call": "inactive"}
{"target": "Rbp4", "amplicon": "DRSC27818", "firefly reporter light, replicate 1": 6.12e5, "firefly reporter light, replicate 2": 5.24e5, "Renilla control light, replicate 1": 6.84e5, "Renilla control light, replicate 2": 8.35e5, "Call": "inactive"}
{"target": "HIPP1", "amplicon": "DRSC11748", "firefly reporter light, replicate 1": 42194, "firefly reporter light, replicate 2": 64821, "Renilla control light, replicate 1": 2.75e5, "Renilla control light, replicate 2": 3.71e5, "Call": "inactive"}
{"target": "HIPP1", "amplicon": "DRSC27992", "firefly reporter light, replicate 1": 5.87e5, "firefly reporter light, replicate 2": 3.13e5, "Renilla control light, replicate 1": 2.65e6, "Renilla control light, replicate 2": 2.09e6, "Call": "inactive"}
{"target": "PIG-H", "amplicon": "DRSC14856", "firefly reporter light, replicate 1": 1.21e5, "firefly reporter light, replicate 2": 1.62e5, "Renilla control light, replicate 1": 3.49e6, "Renilla control light, replicate 2": 2.24e6, "Call": "inactive"}
{"target": "Tsp42A", "amplicon": "DRSC04862", "firefly reporter light, replicate 1": 2.70e5, "firefly reporter light, replicate 2": 2.79e5, "Renilla control light, replicate 1": 2.39e6, "Renilla control light, replicate 2": 2.12e6, "Call": "inactive"}
{"target": "Rab9Db + Rab9D + Rab9Fa + 1 more", "amplicon": "DRSC17662", "firefly reporter light, replicate 1": 2.21e6, "firefly reporter light, replicate 2": 7.92e5, "Renilla control light, replicate 1": 2.68e6, "Renilla control light, replicate 2": 1.14e6, "Call": "inactive"}
{"target": "COX5A", "amplicon": "DRSC16611", "firefly reporter light, replicate 1": 1.82e5, "firefly reporter light, replicate 2": 1.61e5, "Renilla control light, replicate 1": 2.67e6, "Renilla control light, replicate 2": 2.06e6, "Call": "inactive"}
{"target": "PH4alphaNE3", "amplicon": "DRSC16541", "firefly reporter light, replicate 1": 1.30e5, "firefly reporter light, replicate 2": 67092, "Renilla control light, replicate 1": 7.06e5, "Renilla control light, replicate 2": 5.78e5, "Call": "inactive"}
{"target": "PH4alphaNE3", "amplicon": "DRSC24337", "firefly reporter light, replicate 1": 4.30e5, "firefly reporter light, replicate 2": 3.90e5, "Renilla control light, replicate 1": 3.81e5, "Renilla control light, replicate 2": 5.00e5, "Call": "inactive"}
{"target": "TwdlB", "amplicon": "DRSC16050", "firefly reporter light, replicate 1": 1.85e5, "firefly reporter light, replicate 2": 1.80e5, "Renilla control light, replicate 1": 1.71e6, "Renilla control light, replicate 2": 1.62e6, "Call": "inactive"}
{"target": "TwdlB", "amplicon": "DRSC25071", "firefly reporter light, replicate 1": 9.46e5, "firefly reporter light, replicate 2": 8.68e5, "Renilla control light, replicate 1": 6.09e5, "Renilla control light, replicate 2": 8.84e5, "Call": "inactive"}
{"target": "CG30431", "amplicon": "DRSC04902", "firefly reporter light, replicate 1": 1.05e6, "firefly reporter light, replicate 2": 8.03e5, "Renilla control light, replicate 1": 2.57e6, "Renilla control light, replicate 2": 2.48e6, "Call": "inactive"}
{"target": "CG30431", "amplicon": "DRSC04904", "firefly reporter light, replicate 1": 4.18e5, "firefly reporter light, replicate 2": 2.78e5, "Renilla control light, replicate 1": 2.90e6, "Renilla control light, replicate 2": 1.83e6, "Call": "inactive"}
{"target": "Acer", "amplicon": "DRSC01852", "firefly reporter light, replicate 1": 7.11e5, "firefly reporter light, replicate 2": 7.00e5, "Renilla control light, replicate 1": 1.97e6, "Renilla control light, replicate 2": 1.62e6, "Call": "inactive"}
{"target": "CG3815", "amplicon": "DRSC18324", "firefly reporter light, replicate 1": 96948, "firefly reporter light, replicate 2": 91201, "Renilla control light, replicate 1": 9.18e5, "Renilla control light, replicate 2": 5.35e5, "Call": "inactive"}
{"target": "CG3815", "amplicon": "DRSC25830", "firefly reporter light, replicate 1": 3.41e5, "firefly reporter light, replicate 2": 4.66e5, "Renilla control light, replicate 1": 1.08e6, "Renilla control light, replicate 2": 8.71e5, "Call": "inactive"}
{"target": "CG3815", "amplicon": "DRSC38992", "firefly reporter light, replicate 1": 7.04e5, "firefly reporter light, replicate 2": 5.82e5, "Renilla control light, replicate 1": 1.51e6, "Renilla control light, replicate 2": 1.53e6, "Call": "inactive"}
{"target": "ppk23", "amplicon": "DRSC20110", "firefly reporter light, replicate 1": 6.14e5, "firefly reporter light, replicate 2": 4.78e5, "Renilla control light, replicate 1": 3.24e6, "Renilla control light, replicate 2": 2.69e6, "Call": "inactive"}
{"target": "ppk23", "amplicon": "DRSC26441", "firefly reporter light, replicate 1": 2.37e5, "firefly reporter light, replicate 2": 2.87e5, "Renilla control light, replicate 1": 5.09e5, "Renilla control light, replicate 2": 6.08e5, "Call": "inactive"}
